PubChem BioAssay AID686943 | Drosophila RNAi Screening Center | 2013
Screen: 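Fly genes whose loss alters ERK activation after insulin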 (primary screen). System: Drosophila S2R+ haemocyte-like cells expressing YFP-tagged ERK (Rolled). Reagents: long dsRNA against Drosophila genes. Challenge: insulin stimulation versus unstimulated cells; dose and duration not given. Detection: 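Antibody staining for doubly phosphorylated ERK divided by ERK-YFP signal, as plate z-scores, in insulin-treated and untreated cells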. Direction: replicate 1, z-score of dpERK with insulin and replicate 2, z-score of dpERK with insulin: higher = more active ERK per ERK-YFP after insulin.
In all, the deposit lists about 23,000 reagents; this is a random part of those with a known target gene and a result. 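Extra replicates exist only for a retested subset of genes; insulin dose and duration not given; both raised and lowered dpERK matter.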 Names joined by + are all predicted targets of the reagent. Not all columns of the deposit are shown. The record does not give: the amount of reagent, the time to read-out.

exp [DRSC06313] → replicate 1, z-score of dpERK with insulin: -2.94; replicate 2, z-score of dpERK with insulin: -3.87
SCAR [DRSC03426] → replicate 1, z-score of dpERK with insulin: -0.72; replicate 2, z-score of dpERK with insulin: -1.22
CG43271 [DRSC01614] → replicate 1, z-score of dpERK with insulin: 0.34; replicate 2, z-score of dpERK with insulin: 1.2
CG43271 [DRSC21741] → replicate 1, z-score of dpERK with insulin: 0.72; replicate 2, z-score of dpERK with insulin: 0.55
Sap-r [DRSC16849] → replicate 1, z-score of dpERK with insulin: 0.39; replicate 2, z-score of dpERK with insulin: 0.69
Sap-r [DRSC21916] → replicate 1, z-score of dpERK with insulin: -0.06; replicate 2, z-score of dpERK with insulin: 0.37
Hpd [DRSC11670] → replicate 1, z-score of dpERK with insulin: -0.3; replicate 2, z-score of dpERK with insulin: -0.19
CG13016 [DRSC06271] → replicate 1, z-score of dpERK with insulin: -0.67; replicate 2, z-score of dpERK with insulin: -0.53

An excerpt taken from the entries so far:
Sap-r [DRSC21916] → replicate 1, z-score of dpERK with insulin: -0.06; replicate 2, z-score of dpERK with insulin: 0.37
Hpd [DRSC11670] → replicate 1, z-score of dpERK with insulin: -0.3; replicate 2, z-score of dpERK with insulin: -0.19
CG13016 [DRSC06271] → replicate 1, z-score of dpERK with insulin: -0.67; replicate 2, z-score of dpERK with insulin: -0.53

Next records:
CG4766 [DRSC17736] → replicate 1, z-score of dpERK with insulin: 1.6; replicate 2, z-score of dpERK with insulin: 0.33
CG2924 [DRSC18525] → replicate 1, z-score of dpERK with insulin: 0.63; replicate 2, z-score of dpERK with insulin: -0.24
adp [DRSC06916] → replicate 1, z-score of dpERK with insulin: 0.49; replicate 2, z-score of dpERK with insulin: 0.05
CG34034 [DRSC13506] → replicate 1, z-score of dpERK with insulin: -0.91; replicate 2, z-score of dpERK with insulin: 0.61
CG5556 [DRSC00687] → replicate 1, z-score of dpERK with insulin: 0.83; replicate 2, z-score of dpERK with insulin: 0.26
LysD + LysB + LysC (retired record) [DRSC21249] → replicate 1, z-score of dpERK with insulin: 0.26; replicate 2, z-score of dpERK with insulin: -0.1
CG15873 [DRSC04277] → replicate 1, z-score of dpERK with insulin: 0.17; replicate 2, z-score of dpERK with insulin: -0.46
TBC1D5 [DRSC16421] → replicate 1, z-score of dpERK with insulin: -0.2; replicate 2, z-score of dpERK with insulin: -0.17
sstn [DRSC10753] → replicate 1, z-score of dpERK with insulin: -0.1; replicate 2, z-score of dpERK with insulin: 0.06
SWIP [DRSC19540] → replicate 1, z-score of dpERK with insulin: -0.22; replicate 2, z-score of dpERK with insulin: -0.04
Ir94g [DRSC15231] → replicate 1, z-score of dpERK with insulin: 1.08; replicate 2, z-score of dpERK with insulin: -0.4
CG3448 [DRSC10368] → replicate 1, z-score of dpERK with insulin: 0.4; replicate 2, z-score of dpERK with insulin: 0.1
Jon25Biii [DRSC03115] → replicate 1, z-score of dpERK with insulin: 0.55; replicate 2, z-score of dpERK with insulin: -0.33
